# Assay results as given in PubChem BioAssay AID1347075 (National Center for Advancing Translational Sciences (NCATS), 2019).
# Hit rate of the full screen: of about 400,000 compounds, about 5,500 (1.4%) were called active. The inconclusive results got no clear call from the source; some entries with a clear call stand among them for comparison. Calls come from the whole dose curve; as a rule, active = well fitted cell-killing curve with a large enough effect; inconclusive = small, poorly fitted or top-dose-only effect, or effect the other way; inactive = flat fitted curve, though single readings scatter. Where the call is inconclusive, the potency comes from a doubtful curve fit.
# Experiment: qHTS assay for MDR1-selective chemotherapeutics: Primary screen using the parental adenocarcinoma cell KB-3-1; note: nearly all actives have a fitted effect of over 60% in size
# Conditions: KB-3-1 viability, CellTiter-Glo ATP luminescence, 72 h; activity change, negative = cytotoxic: at 46.1 µM (top of the series)
# How it was run: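 KB-3-1 cells, DMEM (no phenol red) + 10% FBS; compound by pin transfer, 72 h, 37 °C. Readout: CellTiter-Glo luminescence after 10 min. Data normalized, curve-fitted.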
# % is set by controls: 0 for no effect and ±100 for the full control effect; potency is the fitted concentration of half-maximal effect.
Structure (SMILES),Potency,"activity change, negative = cytotoxic"
COc1cccc(NC(=O)c2ccc3c(c2)OCCO3)c1,"inconclusive: 20.6 µM [cytotoxic, single point]",
CCOC(=O)CCc1c(C)c2cc3c(c(C)c2oc1=O)OCN(CCc1ccccc1OC)C3,inactive,
CCCCCOc1ccc(Br)cc1CSC(=N)N,active: 11.6 µM,
COc1ccc(Cl)cc1NC(=O)CN1CCC(n2nnc3ccccc32)CC1,inactive,
Cc1cc(C)n2nc(C(=O)N/N=C/c3ccccc3Cl)nc2n1,inactive,
CN(Cc1ccc(OC(F)F)cc1)C(=O)C1CCN(S(=O)(=O)c2ccc3c(c2)OCCO3)CC1,inactive,
O=[N+]([O-])c1ccc2nc(NS(=O)(=O)c3ccc(F)cc3)sc2c1,"inconclusive: 29.1 µM [cytotoxic, single point]",
O=c1c2ccccc2nc(/C=C/c2c[nH]c3ccccc23)n1-c1ccc([N+](=O)[O-])cc1,inactive,
COC(=O)C1=C(C)N(CCc2c[nH]c3ccccc23)C(=O)/C1=C\N(C)C,,inconclusive: -1.35%
O=C(Nc1cccc(S(=O)(=O)NC2=NCCC2)c1)C1CC(=O)N(c2ccc3c(c2)OCCO3)C1 (stereo unspecified),inactive,
Cc1ccc(CNC(=O)c2nc(SCc3cccc(C)c3)ncc2Cl)cc1,"inconclusive: 32.6 µM [cytotoxic, single point]",
CC(C)(C)C(=O)/C(=C/c1ccc(Cl)cc1)n1cncn1,"inconclusive: 29.1 µM [cytotoxic, single point]",
CCOCCOC(=O)c1[nH]c2c(c1C)C(=O)CC(c1ccc(N(C)C)cc1)C2 (stereo unspecified),"inconclusive: 20.6 µM [cytotoxic, single point]",
Cc1cc(Cl)ccc1OCC(=O)NC(=S)Nc1ccccc1N1CCOCC1,inactive,
Cc1nn(C)c(C)c1/C=C(/C(=O)C(C)(C)C)n1cncn1,inactive,
CCN(CC(=O)NCc1ccc(F)cc1)CC(=O)NC1CCCC1,inactive,
N#CC(=C1C=C(Br)C(=NO)C=C1Cl)c1ccc(Cl)cc1,"inconclusive: 32.6 µM [cytotoxic, single point]",
Cn1nc(CC(=O)NC2CCCCCCCCCCC2)c2ccccc2c1=O,"inconclusive: 29.1 µM [cytotoxic, single point]",
CCC(=O)N1CCc2cc(S(=O)(=O)CCC(=O)N3CCN(c4cccc(C)c4)C(C)C3)ccc21 (stereo unspecified),inactive,
CCN(Cc1ccc(OC)cc1)c1ccc(-c2nc(-c3ccncc3)no2)cc1[N+](=O)[O-],"inconclusive: 25.9 µM [cytotoxic, single point]",
O=C(Nc1nnc(-c2ccco2)o1)c1ccc(S(=O)(=O)N2CCCC2)cc1,"inconclusive: 18.4 µM [cytotoxic, single point]",
Cc1ccccc1Nc1c(-c2ccsc2)nc2c(C)cccn12,"inconclusive: 29.1 µM [cytotoxic, single point]",
COCCNc1nc(C(C)(C)C)nc2c1nnn2Cc1ccccc1Cl,"inconclusive: 23.1 µM [cytotoxic, partial curve, poor fit]",

# Full records, quoted from the list.
# O=c1c2ccccc2nc(/C=C/c2c[nH]c3ccccc23)n1-c1ccc([N+](=O)[O-])cc1 as listed: Potency: inactive
# CCOCCOC(=O)c1[nH]c2c(c1C)C(=O)CC(c1ccc(N(C)C)cc1)C2 (stereo unspecified) as listed: Potency: inconclusive: 20.6 µM [cytotoxic, single point]
# COc1cccc(NC(=O)c2ccc3c(c2)OCCO3)c1 as listed: Potency: inconclusive: 20.6 µM [cytotoxic, single point]

# Continued:

Structure (SMILES),Potency,"activity change, negative = cytotoxic"
CN(C)CCNC(=O)c1cc2c(s1)-c1ccc(Cl)cc1SC2,"inconclusive: 29.1 µM [cytotoxic, single point]",
CC(=O)Nc1cccc(-c2ccnc3c2CC(C)(C(=O)NCc2ccc(N(C)C)cc2)O3)c1 (stereo unspecified),active: 10.3 µM,
CC(C)N(C(=O)Cn1c(SCC(=O)NCc2ccc3c(c2)OCO3)nc2ccccc21)C(C)C,inactive,
CCn1cc(CNC(=S)Nc2cccc3ccccc23)cn1,"inconclusive: 29.1 µM [rising, single point]",
Cc1cc(C)cc(C(=O)Nc2cc(C(F)(F)F)ccc2N2CCN(c3ccccc3)CC2)c1,inactive,
CSc1ccc(Cn2c(C)c(C(=O)NCc3cccs3)sc2=O)cc1,inactive,
COc1cccc(-c2nnc(NC(=O)c3ccc(S(=O)(=O)N4CCOCC4)cc3)o2)c1,active: 5.8 µM,
Cc1cn2c(-c3ccc(Cl)cc3)nnc2s1,"inconclusive: 0.259 µM [cytotoxic, full curve]",
O=C(NN=Cc1ccccc1Cl)c1ccc([N+](=O)[O-])cc1,"inconclusive: 0.0058 µM [rising, full curve, poor fit]",
Cn1nc(-c2ccc(Cl)cc2)c2cc(C(=O)NCC3CCCO3)sc21 (stereo unspecified),"inconclusive: 9.2 µM [cytotoxic, partial curve, poor fit]",
Cc1cccc(C)c1NC(=S)N(C)CCc1ccccn1,inactive,
CC(=O)Nc1ccc(S(=O)(=O)NCC2CCC(C(=O)NCCCOC(C)C)CC2)cc1 (stereo unspecified),"inconclusive: 13 µM [cytotoxic, partial curve]",
Cc1ccc(-n2sc3ccccc3c2=O)cc1S(=O)(=O)N1CCCCC1,"inconclusive: 14.6 µM [cytotoxic, partial curve]",
Cc1cccc(N(CC(=O)NC(C)c2ccccc2)S(=O)(=O)c2ccccc2)c1C (stereo unspecified),active: 18.4 µM,
Cc1ccc(-c2nn3c(C)nnc3c3ccccc23)cc1S(=O)(=O)NCCO,"inconclusive: 29.1 µM [cytotoxic, single point]",
CC(C)OCCCNC(=S)N1CCC(C(=O)c2ccc(F)cc2)CC1,"inconclusive: 20.6 µM [cytotoxic, partial curve, poor fit]",
CCCOc1ccc(Cc2c(O)nc(SC)[nH]c2=O)cc1,,inconclusive: -71.6%
Cn1c(=O)c(=O)n(C)c2cc(S(=O)(=O)N3CCCC3C(=O)NCc3cccs3)ccc21 (stereo unspecified),inactive,
Cc1ccc(S(=O)(=O)N2CCOCC2)cc1C(=O)N1CC(C)OC(C)C1 (stereo unspecified),inactive,
COc1cc2c(cc1OC)CN(CC(=O)Nc1ccc3c(c1)OC(F)(F)O3)CC2,inactive,
COc1ccc2nc(NS(=O)(=O)c3ccc(C)cc3)c(Nc3cc(Cl)ccc3OC)nc2c1,"inconclusive: 13 µM [cytotoxic, partial curve, poor fit]",
COC(=O)c1ccccc1NC1=C/C(=N\S(=O)(=O)c2ccc(C(=O)O)cc2)c2ccccc2C1=O,"inconclusive: 29.1 µM [cytotoxic, single point]",
CC(C)(CNC(=O)c1ccc(S(=O)(=O)Nc2ccc(Cl)cc2)cc1)N1CCOCC1,"inconclusive: 18.4 µM [cytotoxic, partial curve, poor fit]",
